Experimental data published in patent US11192849B2, “Compounds, compositions, and methods for modulating ferroptosis and treating excitotoxic disorders” (THE TRUSTEES OF COLUMBIA UNIVERSITY IN THE CITY OF NEW YORK, priority 2013, dated 2021).
Entries after “also recorded” stand apart in the source; their conditions may differ. For at least one compound, name, drawing or mass did not settle the structure.

Chains of the proteins cited; added tags and fusions are not shown. Lines headed by an entry give the natural chain unless they say otherwise; changes in a name come on top.
UniProt Q01650: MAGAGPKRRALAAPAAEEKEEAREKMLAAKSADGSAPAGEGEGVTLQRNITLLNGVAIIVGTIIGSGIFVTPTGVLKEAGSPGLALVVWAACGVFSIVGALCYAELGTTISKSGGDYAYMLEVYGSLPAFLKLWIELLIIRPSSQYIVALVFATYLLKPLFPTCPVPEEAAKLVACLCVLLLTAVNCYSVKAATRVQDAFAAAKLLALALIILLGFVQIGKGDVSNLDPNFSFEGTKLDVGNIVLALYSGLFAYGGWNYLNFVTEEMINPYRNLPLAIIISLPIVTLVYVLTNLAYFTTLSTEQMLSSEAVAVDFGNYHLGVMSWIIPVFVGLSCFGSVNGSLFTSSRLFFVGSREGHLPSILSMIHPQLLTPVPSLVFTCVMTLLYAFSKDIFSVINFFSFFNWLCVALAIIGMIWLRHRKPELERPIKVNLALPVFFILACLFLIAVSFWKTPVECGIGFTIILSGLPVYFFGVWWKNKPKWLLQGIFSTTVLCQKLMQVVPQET

Tests used:
HT-1080 cells [1] = assay: Inhibition of erastin (10 μM)-induced death in HT-1080 cells (Alamar Blue); type: cell-based, human; details: erastin-treated HT-1080 cells
Procedure: (§1) Cell viability was typically assessed in 384-well format by Alamar Blue (Invitrogen) fluorescence (ex/em 530/590) measured on a Victor3 platereader (Perkin Elmer, Waltham, Mass.). In some experiments, Trypan Blue dye exclusion counting was performed using an automated cell counter (ViCell, Beckman-Coulter Inc., Brea, Calif.). Cell viability in test conditions is reported as a percentage relative to the negative control treatment.
The ability of various compounds disclosed herein to inhibit death in erastin (10 μM)-treated HT-1080 cells were tested. Cell viability was assessed by Alamar Blue. EC50 values (nM) were computed from dose response curves.
HT-1080 cells are cultured in DMEM containing 10% fetal bovine serum, 1% supplemented non-essential amino acids and 1% pen/strep mixture (Gibco) and maintained in a humidified environment at 37° C. with 5% CO2 in a tissue culture incubator. 1,000 HT-1080 cells are seeded per well in duplicate 384-well plates (Corning) using a BioMek FX liquid handling robot (Beckman Coulter). The next day, the medium is replaced with 36 μL of medium containing 10 μM erastin with 4 μL of medium containing a dilution series (previously prepared) of DMSO, Fer-1 (positive control) or Fer-1 analogs. […] Cells are incubated a further 6 hours and then the Alamar Blue fluorescence intensity recorded using a Victor 3 platereader (PerkinElmer)(ex/em 530/590). […]

HT-1080 cells [2] = assay: Cytosolic and lipid ROS production (H2DCFDA, C11-BODIPY flow cytometry) in HT-1080 cells; type: cell-based, human; details: erastin (10 μM)
Procedure: The day before the experiment, 200,000 cells/well were seeded in 6-well dishes (Corning Inc., Corning, N.Y.). The day of the experiment, cells were treated with test compounds for the indicated times, then harvested by trypsinization, resuspended in 500 μL Hanks Balanced Salt Solution (HBSS, Gibco, Invitrogen Corp., Carlsbad, Calif.) containing either H2DCFDA (25 μM), C11-BODIPY(581/591) (2 μM) or MitoSOX (5 μM) (all from Molecular Probes, Invitrogen) and incubated for 10 minutes at 37° C. in a tissue culture incubator. Cells were then resuspended in 500 μL of fresh HBSS, strained through a […] cell strainer (BD Falcon, BD Biosciences, San Jose, Calif.), and analyzed using a flow cytometer (FACSCalibur or Accuri C6, BD Biosciences), which was equipped with 488-nm laser for excitation. Data was collected from the FL1 (H2DCFDA, C11-BODIPY) or FL2 channel (MitoSOX). A minimum of 10,000 cells were analyzed per condition.

[3] = test system: HT-1080, BJeLR and Calu-1 cells; assay: Modulatory profiling of cell death inhibitors against erastin; type: cell-based, human; details: erastin 10 μM, 24 hours; 10-point, 4-fold dilution series
Procedure: The day before the experiment, cells were seeded in black, 384-well clear bottom plates (Corning) at a density of 1,000 cells/well using a Beckman Biomek FX Workstation. All compounds (except 3-methyladenine and chloroquine, which were diluted in water) were diluted in DMSO at 250 times the final highest test concentration, and aliquoted across a 384-well plate (Greiner, Monroe, N.C.). A ten-point, 4-fold dilution series of each inhibitor in DMSO was made using a multichannel pipette. Replicates of this mother plate were stored at −20° C. […] Medium was removed from cells and replaced with 36 μL medium containing DMSO (0.1%) or erastin (10 μM final concentration). Using the Biomek FX, 4 μL were then transferred from each inhibitor daughter plate into the DMSO-containing or erastin-containing assay plates. For 3-methyladenine and chloroquine, inhibitors were prepared fresh in media at 10-fold the final concentration in the presence of DMSO or 10 μM erastin. These solutions were manually pipetted onto cells in 384-well format. […] Viability was assessed using Alamar Blue.
The modulatory effect (Me) for drug-drug interactions was computed as follows. […] Next, within each experiment, 100% viability is determined as the average Alamar Blue score for cells treated with modulator=DMSO and lethal=DMSO, and all Alamar Blue values were scaled from 0 to 1 with the DMSO×DMSO condition=1. […]

system L = target: T1, system L (Homo sapiens, UniProt Q01650); details: erastin 1 μM, 25 min; data of Ramanathan and Schreiber, 2009; cited from earlier work
T1 construct: isolated a total of 123 metabolites from Jurkat T cells treated with erastin (1 μM, 25 minutes); endogenous in cells; host or cells: Jurkat T cells (dataset of Ramanathan and Schreiber, 2009, re-analysed)

143B osteosarcoma cells = assay: Erastin / RSL3 lethality in 143B ρ0 and ρ+ cells; type: cell-based, human; details: 24 hours
Procedure: as §1
Because two erastin targets, VDAC2 and VDAC3, reside in the mitochondria, it was hypothesized that erastin-induced death involved aberrant ROS production by the mitochondrial electron transport chain (ETC). […] Furthermore, KRAS-mutant 143B osteosarcoma cells incapable of ETC-dependent ROS formation, due to the depletion of mitochondrial DNA (mtDNA)-encoded transcripts (ρ^0 cells), were as sensitive to erastin and RSL3 as matched mtDNA-wild-type (ρ^+) cells (FIGS. 1E, 1F, and 8C-E). Thus, erastin-induced cell death in human cancer cells involves DFO-sensitive ROS accumulation and can occur in cells lacking a functional ETC. This iron-dependent death phenotype was named ferroptosis.

Structure (SMILES) | prevention of erastin-induced death (HT-1080 cells [1]) | effect of inhibitor on erastin-induced ROS accumulation (HT-1080 cells [2]; H2DCFDA / C11-BODIPY) | modulation of erastin-induced death [3] | levels of system L substrates (system L) | cytosolic and lipid ROS in treated cells (HT-1080 cells [2]) | sensitivity of ρ0 versus ρ+ cells (143B osteosarcoma cells)
CC(=O)N(O)CCCCCNC(=O)CCC(=O)N(O)CCCCCNC(=O)CCC(=O)N(O)CCCCCN [DFO, deferoxamine] | suppressed | suppressed; also recorded: prevented the accumulation of H2DCFDA-sensitive ROS | rescued from erastin-induced death | – | – | –
CCOc1ccccc1-n1c(C(C)N2CCN(C(=O)COc3ccc(Cl)cc3)CC2)nc2ccccc2c1=O (stereo not drawn) [erastin] | – | – | – | highly significant decreases were observed in the levels of system L substrates | time-dependent increase in cytosolic and lipid ROS beginning at 2 hours | as sensitive
